From PMC5320500
No constants are given. Whether binding was seen depends on the method and setting. Binding seen in cells or lysates may run through a third protein. A result given as binding can be weak or reduced; the word gives no strength.

Sequences of proteins named here, by UniProt entry; tags and fusion partners are left off. A change or cut given only in a name is not applied to a line headed by its entry.
UniProt Q5D869: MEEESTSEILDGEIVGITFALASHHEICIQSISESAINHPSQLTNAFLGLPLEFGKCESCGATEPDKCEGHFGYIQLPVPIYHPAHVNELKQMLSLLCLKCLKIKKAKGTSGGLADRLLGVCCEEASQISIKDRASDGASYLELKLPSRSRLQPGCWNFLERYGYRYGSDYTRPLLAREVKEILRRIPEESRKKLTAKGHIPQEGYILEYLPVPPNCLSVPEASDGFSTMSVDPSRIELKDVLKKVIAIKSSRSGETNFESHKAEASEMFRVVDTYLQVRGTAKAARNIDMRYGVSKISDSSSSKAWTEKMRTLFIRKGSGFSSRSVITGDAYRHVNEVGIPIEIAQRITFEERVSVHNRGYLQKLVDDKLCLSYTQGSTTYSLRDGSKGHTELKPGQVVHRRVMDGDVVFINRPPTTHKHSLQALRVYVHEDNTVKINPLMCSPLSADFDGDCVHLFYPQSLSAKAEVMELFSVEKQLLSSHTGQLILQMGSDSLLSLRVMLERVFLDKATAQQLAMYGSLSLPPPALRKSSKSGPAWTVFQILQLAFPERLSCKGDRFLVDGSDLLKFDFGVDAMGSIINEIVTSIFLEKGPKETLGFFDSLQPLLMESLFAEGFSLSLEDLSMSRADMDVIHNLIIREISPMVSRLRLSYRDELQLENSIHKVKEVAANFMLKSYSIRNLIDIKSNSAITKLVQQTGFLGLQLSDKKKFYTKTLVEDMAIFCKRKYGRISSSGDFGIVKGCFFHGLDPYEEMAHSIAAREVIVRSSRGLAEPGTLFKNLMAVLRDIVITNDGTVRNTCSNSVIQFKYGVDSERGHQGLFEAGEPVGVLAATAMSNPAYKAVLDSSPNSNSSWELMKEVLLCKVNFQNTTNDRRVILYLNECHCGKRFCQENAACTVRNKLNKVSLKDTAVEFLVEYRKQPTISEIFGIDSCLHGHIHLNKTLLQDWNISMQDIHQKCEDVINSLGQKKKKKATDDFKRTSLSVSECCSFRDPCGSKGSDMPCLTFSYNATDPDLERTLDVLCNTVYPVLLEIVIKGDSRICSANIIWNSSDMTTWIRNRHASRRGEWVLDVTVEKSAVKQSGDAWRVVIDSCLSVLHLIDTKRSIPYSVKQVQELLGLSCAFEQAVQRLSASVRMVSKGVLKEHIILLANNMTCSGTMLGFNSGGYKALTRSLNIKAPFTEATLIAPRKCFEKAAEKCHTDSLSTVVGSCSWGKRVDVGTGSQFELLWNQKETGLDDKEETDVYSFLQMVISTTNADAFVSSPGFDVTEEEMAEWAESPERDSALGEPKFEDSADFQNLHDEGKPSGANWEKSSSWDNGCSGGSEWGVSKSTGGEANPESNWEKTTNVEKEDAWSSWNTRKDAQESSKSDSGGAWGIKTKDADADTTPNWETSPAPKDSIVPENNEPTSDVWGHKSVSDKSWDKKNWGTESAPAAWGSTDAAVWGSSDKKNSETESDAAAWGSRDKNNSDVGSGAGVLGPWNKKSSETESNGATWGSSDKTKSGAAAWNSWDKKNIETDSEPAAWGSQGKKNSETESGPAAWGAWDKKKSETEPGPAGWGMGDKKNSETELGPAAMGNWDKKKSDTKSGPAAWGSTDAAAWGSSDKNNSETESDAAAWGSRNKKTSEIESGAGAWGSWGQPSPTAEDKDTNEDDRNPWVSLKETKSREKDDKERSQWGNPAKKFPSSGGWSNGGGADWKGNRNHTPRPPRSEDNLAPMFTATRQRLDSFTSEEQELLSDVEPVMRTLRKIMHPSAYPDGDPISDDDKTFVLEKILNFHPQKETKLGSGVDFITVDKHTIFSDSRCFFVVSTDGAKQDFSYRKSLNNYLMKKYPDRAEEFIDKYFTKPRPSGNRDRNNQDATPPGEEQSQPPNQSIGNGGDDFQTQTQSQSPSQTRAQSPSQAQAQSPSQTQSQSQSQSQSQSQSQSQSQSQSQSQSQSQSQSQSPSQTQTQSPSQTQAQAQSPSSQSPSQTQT
UniProt Q9M1J2: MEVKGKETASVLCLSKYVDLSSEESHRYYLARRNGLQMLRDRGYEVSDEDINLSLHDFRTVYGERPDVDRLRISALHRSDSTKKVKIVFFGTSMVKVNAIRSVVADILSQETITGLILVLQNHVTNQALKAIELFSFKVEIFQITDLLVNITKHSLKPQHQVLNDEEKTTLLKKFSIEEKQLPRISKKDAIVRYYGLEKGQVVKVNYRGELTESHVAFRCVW

Target: NRPE1-FLAG (largest subunit of nuclear RNA polymerase V) (Arabidopsis thaliana) (UniProt Q5D869)
Experiment: cross-linking; Pol V complex held on dimethylated anti-FLAG beads, washed with 1 M NaCl lysis buffer, cross-linked on the beads with 5 mM BS3 in 30 mM HEPES pH 7.5, 150 mM NaCl, 1 h, room temperature; trypsin (FASP), LC MS/MS, Batch-Tag search

binding: binds
Substance: NRPE5 (from UniProt Q9M1J2)
